PubChem BioAssay AID624291 (National Center for Advancing Translational Sciences (NCATS), 2012)
The campaign covered roughly 350,000 compounds. About 220 (0.063%) were called active. The shares of active, inactive and inconclusive entries below differ from those in the screen. The call rests on the fitted dose curve; in most records, active means well fitted activation curve with a large enough effect; inconclusive means small, poorly fitted or top-dose-only effect; inactive means no such curve, though single readings can be large or run the other way. Potencies of inconclusive entries are doubtful fits and often do not repeat.

assay: qHTS for Activators of Integrin-Mediated Alleviation for Muscular Dystrophy; conditions: alpha7betagal myoblasts, beta-gal FDG fluorescence, 48 h; activation: at 38.3 µM (top of the series); further: nearly all actives have a fitted effect of over 60% in size;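 on activation: 100% = response of the positive control SU9516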
Procedure, shortened: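 Alpha7betagal+/- myoblasts (passage 13) were plated 16-24 hr, then exposed to compounds (1:260 dilution of DMSO stock) for 48 hours at 37C. After MPER lysis, β-galactosidase reporter activity was read as FDG fluorescence (ex 480/em 540) after 30 minutes.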
Potency means the concentration at half of the fitted maximal effect.

| Compound | Potency | activation |
| --- | --- | --- |
| O=C(O)CC/C(=N\Nc1ccc(Cl)cc1)c1cccs1 | inconclusive: 5.01 µM [activator, single point] | – |
| Cc1c(Cl)cccc1NC(=S)Nc1ccc2[nH]c(=O)[nH]c2c1 | inactive | – |
| O=[N+]([O-])c1ccc(C(O)C[n+]2ccccc2)cc1 (stereo unspecified) | inconclusive: 5.01 µM [activator, single point] | – |
| O=C(OCC1OC(n2ccc(=O)[nH]c2=O)C(Cl)C1O)c1ccccc1 (stereo unspecified) | inconclusive: 28.2 µM [activator, single point] | – |
| Cc1cc(C)nc(NS(=O)(=O)c2ccc(NC(=O)CSc3nc(-c4ccccc4)c(C#N)c(=O)[nH]3)cc2)n1 | inactive | – |
| Cc1ccc(NS(=O)(=O)c2c(C(=O)N3CCCCCC3)c(C)n(C)c2C)c(C)c1 | inconclusive: 0.891 µM [activator, full curve, poor fit] | – |
| Cc1cc(C)n(-c2nc3ccccc3nc2N2CCC(C)CC2)n1 | inactive | – |
| O=C(Nc1ccc(S(=O)(=O)NCC2CCCO2)cc1)c1ccc(Cl)cc1[N+](=O)[O-] (stereo unspecified) | inconclusive: 11.2 µM [activator, single point] | – |
| CCc1ccc(NC(=O)CCn2nc(C)c(S(=O)(=O)N3CCCCC3)c2C)cc1 | inconclusive: 12.6 µM [activator, single point] | – |
| CCOC(=O)CSc1nsc(SCC(=O)OCC)c1C#N | inactive | – |
| COc1ccc(-c2cc(C(F)(F)F)nc(-n3ccnc3)n2)cc1 | inactive | – |
| Cc1cc(C(=O)NC(=S)Nc2cccc(NC(=O)C(C)C)c2)ccc1[N+](=O)[O-] | inactive | – |
| CCOc1ccc(NCc2cc3c(C(C)(C)C)nn(-c4ccccc4)c3[nH]c2=O)cc1 | inconclusive: 10 µM [activator, partial curve, poor fit] | – |
| COc1cccc(NC(=O)CSCc2cc(=O)n3ccsc3n2)c1 | inconclusive: 0.501 µM [activator, full curve, poor fit] | – |
| N#Cc1cccc(Nc2c3c(nc4ccccc24)CCCC3)c1 | inconclusive: 5.01 µM [activator, single point] | – |
| CCOC(=O)c1ccc(-c2ccc3c(c2)CCC3)nc1C | inactive | – |
| Oc1cccc2cnccc12 | inconclusive: 3.98 µM [activator, single point] | – |
| Cn1c(C(=O)c2ccccc2)nc2ccccc21 | inconclusive: 1 µM [activator, partial curve, poor fit] | – |
| O=C(/C=C/c1ccccc1Cl)Nc1cccnc1 | inconclusive: 28.2 µM [activator, single point] | – |
| CCC(C(=O)Nc1cc(Cl)ccc1OC)c1ccccc1 (stereo unspecified) | inconclusive: 5.01 µM [activator, single point] | – |
| O=C(CCc1nnc2ccc(NCc3ccco3)nn12)N1CCN(c2ccccc2)CC1 | inconclusive: 3.98 µM [activator, single point] | – |
| C=CCc1cc(Cl)ccc1OC(=O)Nc1cccc(Cl)c1 | inconclusive: 6.31 µM [activator, partial curve] | – |
| Cc1ccccc1N1CN(Cc2ccco2)CNC1=S | inactive | – |
| Cn1c2ccccc2c(=O)c2ccc(C#Cc3ccccn3)cc21 | inactive | – |

| Compound | Potency | activation |
| --- | --- | --- |
| Cc1ccc(-c2ccc(S(=O)(=O)N3CCCC3)cc2)cc1 | inconclusive: 3.55 µM [activator, single point] | – |
| Clc1ccc(/C=N/Nc2ncnc3ccccc23)cc1Cl | inactive | – |
| CCN(CC)C(=O)CSc1nnc(CNc2ccc(F)cc2)o1 | inactive | – |
| CC(C)CNC(=O)C(=O)NCC(c1ccc2c(c1)OCO2)N1CCOCC1 (stereo unspecified) | inconclusive: 3.16 µM [activator, partial curve, poor fit] | – |
| CC1=C(C(=O)NC2CC(C)(C)Cc3c2cnn3-c2cccc(F)c2)OCCO1 (stereo unspecified) | inconclusive: 5.01 µM [activator, single point] | – |
| CCOC(=O)CSc1ccc2nnc(CCNS(=O)(=O)c3ccccc3)n2n1 | inconclusive: 28.2 µM [activator, single point] | – |
| Cc1nc(/C(N)=N/OC(=O)c2ccccc2Cl)c(C(F)(F)F)o1 | inconclusive: 28.2 µM [activator, single point] | – |
| O=C(Nc1ccc2[nH]c(=O)[nH]c2c1)c1c(F)c(F)c(F)c(F)c1F | inconclusive: 3.55 µM [activator, single point] | – |
| CC1CCN(C(=O)CCc2nnc3ccc(NCc4ccco4)nn23)CC1 | inconclusive: 3.55 µM [activator, single point] | – |
| COC(=O)/C(=C\c1ccc(O)cc1)c1nc2ccccc2[nH]1 | inactive | – |
| O=C(Nc1cc(NC(=O)c2ccccc2F)ccc1Cl)c1ccccc1 | inconclusive: 1 µM [activator, partial curve, poor fit] | – |
| COCCNC(=O)CN(Cc1ccc(OC)cc1)C(=O)CCC(=O)Nc1nccs1 | inconclusive: 7.94 µM [activator, partial curve, poor fit] | – |
| O=C(NCc1ccc(Cl)cc1)c1ccc2c(=O)n(CC3CCCO3)c(=S)[nH]c2c1 (stereo unspecified) | inconclusive: 3.55 µM [activator, partial curve, poor fit] | – |
| COC(=O)c1ccc2c(=O)n(CCCCCC(=O)N3CCN(c4ccccc4)CC3)c(=O)[nH]c2c1 | inactive | – |
| C=CCc1ccc(OCCN2CCc3ccccc3C2)c(OC)c1 | inactive | – |
| COc1ccc(CCNC(=O)c2cc(-c3cc(C)ccc3O)n[nH]2)cc1OC | active: 10 µM | – |
| CC(=O)c1ncnn1CC(=O)c1ccc(Cl)cc1Cl | inconclusive: 2.51 µM [activator, partial curve, poor fit] | – |
| CCN(CC)CCCNC(=O)c1cn(CC)c2ccc(S(=O)(=O)N(C)C3CCCCC3)cc2c1=O | inconclusive: 1.26 µM [activator, single point] | – |
| COc1ccc(NC(=S)NCCc2c[nH]c3ccccc23)c(OC)c1 | inactive | – |
| Cc1cccc(S(=O)(=O)Nc2nc3ccccc3nc2OC(C)C)c1 | inconclusive: 2.24 µM [activator, single point] | – |
| Cc1cccc(N2CCN(S(=O)(=O)c3c(C)noc3/C=C/N(C)C)CC2)c1C | inactive | – |
| COc1ccc(N(C)C(=O)c2sc(Cl)nc2C)cc1 | inconclusive: 2.82 µM [activator, partial curve, poor fit] | – |
| CC(=O)C1=C(O)C(=O)N(c2nccs2)C1c1ccccc1F (stereo unspecified) | inconclusive: 1.78 µM [activator, full curve, poor fit] | – |
| CCn1ncc(NC(=S)Nc2ccc3c(c2)OCO3)c1C(N)=O | inconclusive: 1.26 µM [activator, partial curve, poor fit] | – |

Structures listed so far that have fluorine, in the order listed:

| Compound | Potency | activation |
| --- | --- | --- |
| COc1ccc(-c2cc(C(F)(F)F)nc(-n3ccnc3)n2)cc1 | inactive | – |
| CCN(CC)C(=O)CSc1nnc(CNc2ccc(F)cc2)o1 | inactive | – |
| CC1=C(C(=O)NC2CC(C)(C)Cc3c2cnn3-c2cccc(F)c2)OCCO1 (stereo unspecified) | inconclusive: 5.01 µM [activator, single point] | – |
| Cc1nc(/C(N)=N/OC(=O)c2ccccc2Cl)c(C(F)(F)F)o1 | inconclusive: 28.2 µM [activator, single point] | – |
| O=C(Nc1ccc2[nH]c(=O)[nH]c2c1)c1c(F)c(F)c(F)c(F)c1F | inconclusive: 3.55 µM [activator, single point] | – |
| O=C(Nc1cc(NC(=O)c2ccccc2F)ccc1Cl)c1ccccc1 | inconclusive: 1 µM [activator, partial curve, poor fit] | – |
| CC(=O)C1=C(O)C(=O)N(c2nccs2)C1c1ccccc1F (stereo unspecified) | inconclusive: 1.78 µM [activator, full curve, poor fit] | – |

Following part

| Compound | Potency | activation |
| --- | --- | --- |
| CCOC(=O)C1CCN(C(=O)c2[nH]c3ccc(OC)cc3c2C)CC1 | inconclusive: 12.6 µM [activator, partial curve, poor fit] | – |
| COc1ccc(C(=O)N/C(=C\c2ccccc2)C(=O)NCc2cccnc2)cc1 | inconclusive: 5.01 µM [activator, single point] | – |
| Cc1cccc(Cn2c(C)nc3c(N)c(C)c(C)cc32)c1 | inactive | – |
| COc1ccc(CNC(=O)CCCn2ncn3c(cc4occc43)c2=O)cc1 | inconclusive: 11.2 µM [activator, partial curve, poor fit] | – |
| CSc1nc(C)c(CCO)c(=O)[nH]1 | inconclusive: 10 µM [activator, single point] | – |
| CCC(C)(C)NC(=O)c1cc(S(=O)(=O)N2CCCCC2)ccc1N1CCOCC1 | inconclusive: 31.6 µM [activator, partial curve, poor fit] | – |
| CCCCNc1c(-c2ccc(OC)c(SC3CCCCC3)c2)nc2ccc(Cl)cn12 | inactive | – |
| CCOC(=O)N1CCC(N2CC34C=CC(O3)C(C(=O)Nc3ccc(F)cc3)C4C2=O)CC1 (stereo unspecified) | inconclusive: 2.82 µM [activator, partial curve] | – |
| COc1ccc(C(CNC(=O)CNC(=O)c2ccccc2)N2CCCC2)cc1 (stereo unspecified) | inactive | – |
| CCOC(=O)Nc1ccc(N2CCOCC2)c(S(=O)(=O)Nc2ccc(Cl)cc2)c1 | inconclusive: 12.6 µM [activator, single point] | – |
| Cc1cc(C)n2nc(SCC(=O)Nc3ccc(O)cc3)nc2n1 | inconclusive: 3.16 µM [activator, single point] | – |
| CC(=O)c1cccc(NC(=S)NC(=O)CC(C)C)c1 | inactive | – |
| CCCCNC(=O)[C@@H]1CSC2c3ccc(OC)c(OC)c3C(=O)N21 (stereo partly specified) | inactive | – |
| Cc1ccccc1NC(=O)N1CCN(c2ncccn2)CC1 | inconclusive: 3.55 µM [activator, partial curve, poor fit] | – |
| N#Cc1c(NCCN)nc(-c2ccco2)c2c1CCCC2 | inactive | – |
| Cc1ccc(S(=O)(=O)N2CCN(C(=O)N3CCCC3)CC2)cc1 | inconclusive: 2.51 µM [activator, full curve, poor fit] | – |
| CCOc1ccc(NC(=O)c2ccccc2C(=O)c2ccccc2)cc1OCC | inconclusive: 11.2 µM [activator, single point] | – |
| CCN(Cc1ccccc1)C(=O)Cn1cnc2c1c(=O)n(C)c(=O)n2C | inconclusive: 1.12 µM [activator, partial curve, poor fit] | – |
| COc1ccc(OCC(=O)N2CCN(S(=O)(=O)c3ccc(Cl)s3)CC2)cc1 | inconclusive: 5.01 µM [activator, single point] | – |
| O=C(c1ccoc1)N1CCCC(N2CCN(c3ccc(F)cc3)CC2)C1 (stereo unspecified) | inactive | – |
| Cc1cc(C)c(S(=O)(=O)N(C)c2ccccc2)c(C)c1 | – | inconclusive: 0.0548% [activator] |
| CCn1c(-c2ccco2)n[nH]c1=S | inactive | – |
| Cc1ccc(S(=O)(=O)Nc2ccnc(-c3cccnc3)n2)cc1 | inconclusive: 28.2 µM [activator, single point] | – |

An excerpt of these results, with each value named.
CC(=O)c1ncnn1CC(=O)c1ccc(Cl)cc1Cl
  Potency: inconclusive: 2.51 µM [activator, partial curve, poor fit]
CCN(CC)CCCNC(=O)c1cn(CC)c2ccc(S(=O)(=O)N(C)C3CCCCC3)cc2c1=O
  Potency: inconclusive: 1.26 µM [activator, single point]
